In PMC5005036, “PDZD7-MYO7A complex identified in enriched stereocilia membranes” (eLife, 2016):
Results are given in words; binding and its absence hold for the method and conditions named. Binding seen in cells or lysates may run through a third protein. A yes stands for co-enrichment or nearness to the bait. Other partners may have been found.

Target: MYO7A (myosin VIIA), chick stereocilia membranes (chicken (endogenous in E19-E21 chick inner ear))
Experiment: affinity purification with mass spectrometry; 138-1 anti-MYO7A beads on RIPA extract (S7) of chick stereocilia membranes, ~500 ear-equivalents, control IgG beads first; shotgun (data-dependent) mass spectrometry, six runs

B1: GRXCR1, chick stereocilia membranes (protein, UniProt E1C085 1-293)
chain: MFKGEVKAESERLSRKVRFRVASSHSGRVLKEVYADGEATDSLDSEYTSSSETDQTSRLSEVEGQQNGHGGSECDENENEQDDLLILVRATKEKGFGTKRVNILSKNGTVRGVKHKVSAGQALFDNLSKIFQVSTVPEFGRIVIYTTSLRVVRTTFERCELVRKIFQNHRVKFEEKNIALNSDYGKELDERCRRVCEAPSLPVVFIDGHYLGGAEKILLMNESGELQDLLTKIEKVQHPHECPSCGGFGFLPCSVCHGSKMSVFRNCFTDSFKALKCTACNENGLQRCRSCAS
For B1, the binding was “binds”.
